PubChem BioAssay AID1259263 | Sanger Institute – 2017

- Screen: 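Find siRNA and drug combinations lethal together in bowel cancer cells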 (follow-up of hits)
- Cell system: SW1463 human colorectal cancer cell line
- Knock-down reagent: single siRNA against human genes
- Treatment: anchor drugs BYL719 at 1 µM, cetuximab at 5 µg/ml or trametinib at 10 nM, or DMSO vehicle, added one day after siRNA transfection
- Detection: 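Viability relative to a non-targeting siRNA control, averaged over replicates, plus a synergy score contrasting measured with expected viability loss for knock-down and drug combined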
- Scale: synergy score with trametinib and synergy score with BYL719 and synergy score with cetuximab: higher = stronger synthetic lethal effect with the drug; viability with trametinib: higher = more cells survive knock-down plus drug; viability with vehicle only: higher = more cells survive the knock-down
- Active means: 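Called active if the synergy score is above 0.10 for one or more of the three anchor drugs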
- Meaning of the calls: active = synergy with at least one drug; inactive = no synergy with any drug
In all, the deposit lists 160 reagents; shown is a random part of them. In the full data, 101 (63%) got an active call. 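Drug doses chosen to kill few cells alone; each row is one siRNA, and a gene counts as confirmed only if two or more siRNAs show synergy.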 The numbers tell different reagents against one gene apart. Viability is capped at 1. Not given: the amount of reagent, the time to read-out.

Target gene | reagent | synergy score with trametinib | synergy score with BYL719 | synergy score with cetuximab | viability with trametinib (fraction of control) | viability with vehicle only (fraction of control) | Outcome
CDK6 | 1 | -0.00509 | -0.114 | 0.0281 | 0.578 | 0.771 | inactive
CDK6 | 2 | 0.362 | 0.171 | 0.151 | 0.147 | 0.686 | active
CDK6 | 3 | 0.194 | -0.118 | 0.0287 | 0.329 | 0.704 | active
CDK6 | 4 | 0.241 | 0.232 | 0.327 | 0.403 | 0.867 | active
GRK5 | 1 | -0.343 | 0.1 | 0.164 | 0.971 | 0.845 | –
GRK5 | 2 | 0.103 | -0.128 | 0.0787 | 0.585 | 0.927 | active
GRK5 | 3 | 0.206 | 0.245 | -0.0953 | 0.496 | 0.945 | active
GRK5 | 4 | 0.149 | 0.0692 | 0.142 | 0.57 | 0.968 | active
IKBKB | 1 | -0.0454 | -0.0475 | -0.117 | 0.563 | 0.697 | inactive
IKBKB | 2 | 0.225 | 0.174 | 0.165 | 0.519 | 1 | active
IKBKB | 3 | 0.071 | 0.0622 | -0.13 | 0.604 | 0.908 | inactive
IKBKB | 4 | 0.0461 | 0.0606 | -0.201 | 0.411 | 0.615 | inactive

Part of the list above in another layout:
| Target gene | reagent | synergy score with trametinib | synergy score with BYL719 | synergy score with cetuximab | viability with trametinib (fraction of control) | viability with vehicle only (fraction of control) | Outcome |
| --- | --- | --- | --- | --- | --- | --- | --- |
| IKBKB | 2 | 0.225 | 0.174 | 0.165 | 0.519 | 1 | active |
| IKBKB | 3 | 0.071 | 0.0622 | -0.13 | 0.604 | 0.908 | inactive |

Continued:
Target gene | reagent | synergy score with trametinib | synergy score with BYL719 | synergy score with cetuximab | viability with trametinib (fraction of control) | viability with vehicle only (fraction of control) | Outcome
MAPK4 | 1 | 0.0427 | 0.0622 | -0.0947 | 0.7 | 1 | inactive
MAPK4 | 2 | 0.152 | 0.0396 | -0.127 | 0.448 | 0.808 | active
MAPK4 | 3 | 0.4 | 0.351 | 0.238 | 0.322 | 0.971 | active
MAPK4 | 4 | -0.0118 | 0.0709 | -0.02 | 0.411 | 0.537 | inactive
PRAG1 | 1 | 0.199 | 0.345 | 0.176 | 0.504 | 0.945 | active
PRAG1 | 2 | 0.199 | 0.114 | 0.05 | 0.545 | 1 | active
PRAG1 | 3 | -0.125 | -0.0386 | -0.151 | 0.767 | 0.864 | inactive
PRAG1 | 4 | -0.0316 | -0.0158 | 0.0241 | 0.775 | 1 | inactive
